By AC50 is commonly meant the concentration at which the activity in the assay is half-maximal.

From PubChem BioAssay AID493014 (National Center for Advancing Translational Sciences (NCATS), 2011) come the findings set out here.

The assay can be described thus: qHTS Assay to Find Inhibitors of Chronic Active B-Cell Receptor Signaling. Conditions: ABC-DLBCL IkBa-CBG/CBR reporter, luminescence ratio (green luciferase fused to IkBa over red control in TMD8 lymphoma cells), 4 h. Put shortly:
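Cell line TMD8 (human ABC DLBCL), stably expressing tet-inducible CBG68-IkBa fusion and CBR; IMDM/0.5% FBS; cpd up to 46 uM; dox induction, 4 h, 37C/5% CO2; dual luminescence; green/red ratio; MG132 control.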
For orientation: In qHTS, concentration-response curves come from the screen itself.

Setting [1] is: measured here: CBR red luminescence, cell number.
The mark [2] stands for this setting: measured here: IkBa-CBG green luminescence.

Some of the results follow. Further columns of the screen follow, without active or inactive calls. Most of these compounds were active or inconclusive in the main read-out, so they are no random draw. Potencies come from curve fits of mixed quality, noted in brackets.

For `COc1cc(/C=N/NC(=O)c2cccnc2)ccc1OS(=O)(=O)c1cc(C)ccc1C`, the AC50 under setting [1] is 23.1 µM [falling, single point].
With `CCOC(=O)c1c(-c2ccccc2)oc2ccc(O)c(CN(C)C)c12`, under setting [1], the AC50 is 16.4 µM [falling, partial curve, poor fit].
In the case of `NC(=O)c1cc([N+](=O)[O-])ccc1NCc1ccc(C(=O)O)cc1`, under setting [1], the AC50 is 20.6 µM [falling, single point].
`CC(C)c1csc2nc3n(c(=O)c12)CCCCC3`: the concentration at half-maximal activity (AC50) under setting [1] was 35.5 µM [rising, single point].
Turning to `Cc1cc(C)nc(N/N=C/C2=C(O)CC(c3ccc(F)cc3)CC2=O)n1` (stereo unspecified), the AC50 under setting [1] is 2.82 µM [rising, partial curve].
On to `O=c1[nH]c(/C=C/c2ccccn2)nc2ccccc12`, for which the AC50 under setting [1] was 35.5 µM [falling, single point].
Turning to `Cc1cc(C(=O)COc2ccc(Cl)cc2Br)c(C)n1C`, the half-maximal activity concentration (AC50) under setting [1] was 0.0891 µM [rising, full curve, poor fit].
On to `N#C/C(=C\c1ccncc1)c1ccccn1`, for which, under setting [1], the concentration at half-maximal activity (AC50) is 7.08 µM [falling, partial curve, poor fit].
In the case of `Cc1ccc2c(C)c(C(=O)N(Cc3ccccc3)C3CCS(=O)(=O)C3)oc2c1` (stereo unspecified), the AC50 under setting [1] is 2.82 µM [rising, single point].
On to `O=C1c2cccc3c([N+](=O)[O-])ccc(c23)C(=O)N1c1ccccn1`, for which the AC50 under setting [1] was 12.6 µM [rising, partial curve].
In the case of `COC(=O)c1cccc(NC(=O)CSc2nnc(COc3cccc(C)c3)n2C)c1`, the AC50 under setting [1] was 20 µM [falling, single point].
For `COc1cc(/C=N/NC(=O)NC23CC4CC(CC(C4)C2)C3)ccc1O`, the AC50 under setting [2] was 11.2 µM [falling, partial curve, poor fit].
Turning to `CN(C)CCNC(=O)c1cccc(S(=O)(=O)Nc2ccc(F)cc2)c1`, under setting [1], the AC50 was 12.6 µM [falling, partial curve, poor fit].
Turning to `S=c1ccc2ccccc2[nH]1`, under setting [2], the AC50 was 25.1 µM [falling, single point].
Take `O=c1c2ccccc2nnn1COc1cccc(Cl)c1`: under setting [1], the AC50 is 1.12 µM [falling, full curve, poor fit].
Regarding `O=C(O)C1CCCCN1S(=O)(=O)c1ccccc1` (stereo unspecified), the AC50 under setting [1] is 29.1 µM [rising, single point].
Regarding `NC(=O)c1cc(-c2ccccc2)nc(N2CCOCC2)n1`, the AC50 under setting [1] was 8.2 µM [falling, partial curve].
As for `O=C(NC(=O)c1ccccc1)Nc1ccccc1`, the AC50 under setting [1] was 3.55 µM [falling, full curve, poor fit].
Regarding `COc1ccc2cc(/C=N/NC(=O)CN(c3ccccc3)S(=O)(=O)c3ccccc3)c(Cl)nc2c1`, under setting [1], the AC50 was 25.9 µM [rising, partial curve, poor fit].
With `CCCNC(=O)Nc1nnc(C2CC2)s1`, the half-maximal activity concentration (AC50) under setting [1] was 6.31 µM [rising, partial curve, poor fit].
As for `COc1ccc(/C(C#N)=C/c2ccccn2)cc1`, under setting [1], the AC50 is 35.5 µM [falling, single point].
`O=C(NC(NC(=S)Nc1cc(Cl)ccc1Cl)C(Cl)(Cl)Cl)c1ccco1` (stereo unspecified): the AC50 under setting [1] was 17.8 µM [falling, partial curve, poor fit].
For the compound `CNC(=O)c1ccc(NC(=O)c2ccc3c(=O)n4c(nc3c2)CCC4)cc1`, under setting [1], the AC50 is 10.3 µM [falling, partial curve, poor fit].
Consider `CCOC(=O)c1ccc(N/C=C/C(=O)c2ccccc2)cc1`, for which, under setting [1], the AC50 was 25.1 µM [falling, single point].
The same measure, in the same setting: for `NNc1nc(NCc2ccccc2)nc(N2CCOCC2)n1` the value was 18.4 µM [falling, single point]; for `Cc1ccccc1Cn1c(=N)n(CC(=O)c2ccco2)c2ccccc21`, 3.98 µM [falling, partial curve, poor fit].
For the compound `COc1ccc(OC)c2sc(NC(=O)c3ccc(S(=O)(=O)N4CCOCC4)cc3)nc12`, the AC50 under setting [1] is 9.2 µM [falling, partial curve, poor fit].
With `CCC(=O)N1CCC(c2ccc(OC)cc2)=N1`, the AC50 under setting [1] is 2.31 µM [rising, full curve].
Regarding `CCOC(=O)COc1ccc(S(=O)(=O)NCCC2=CCCCC2)cc1`, the AC50 under setting [1] was 29.1 µM [falling, partial curve, poor fit].
Regarding `O=C(CCn1c(=S)[nH]c2ccccc2c1=O)Nc1cccc(Cl)c1`, the AC50 under setting [1] was 0.708 µM [rising, full curve, poor fit].
Consider `CCc1nc2ccc(C(=O)NCc3ccc(OC)c(OC)c3)cc2nc1CC`, for which the AC50 under setting [1] is 12.6 µM [falling, partial curve, poor fit].
As for `N#CCC(=O)Nc1ccc(C(=O)OCC(=O)NCc2ccc3c(c2)OCO3)cc1`, under setting [1], the AC50 is 13 µM [falling, single point].
In the case of `CC1(C)Cc2c(c(N3CCOCC3)nc3sc(C(=O)Nc4ccc(Cl)cc4)c(N)c23)CO1`, the AC50 under setting [1] is 20 µM [falling, partial curve, poor fit].
As to `CCN1CCN(c2ccc(S(=O)(=O)N3CCOCC3)cc2NC(=O)c2ccccc2SC)CC1`, under setting [1], the AC50 was 1.64 µM [rising, partial curve].
Take `CCCn1c(N)c(N(CCOC)C(=O)c2ccc(N(C)S(=O)(=O)c3ccc(C)cc3)cc2)c(=O)[nH]c1=O`: the AC50 under setting [1] is 0.013 µM [falling, full curve, poor fit].
Regarding `CCCCC(=O)N1CCCC(c2nc(-c3cccc(OC)c3)no2)C1` (stereo unspecified), under setting [1], the AC50 was 1.41 µM [rising, partial curve, poor fit].
For the compound `OCC1OC(n2cnc3c(NC4CCCCC4)ncnc32)C(O)C1O` (stereo unspecified), the AC50 under setting [2] is 2.51 µM [falling, partial curve].
For the compound `CCN(CC(=O)Nc1ccc(NC(C)=O)cc1)CC(=O)Nc1cccc(Cl)c1`, under setting [1], the AC50 is 22.4 µM [falling, single point].
`CC(=O)OC1COC(N2CCc3cc(Br)c([N+](=O)[O-])cc32)C(OC(C)=O)C1OC(C)=O` (stereo unspecified): the AC50 under setting [1] was 6.51 µM [falling, single point].
Regarding `COC(=O)CNC(=O)c1cccc(-c2ccc(OC)cc2)c1`, the AC50 under setting [1] is 28.2 µM [falling, single point].
Consider `CCCC1=NN(c2ccc([N+](=O)[O-])cc2)C(=O)/C1=C/N(C)C`, for which, under setting [1], the AC50 was 29.1 µM [falling, single point].
